Results as given in article doi:10.1101/2020.04.07.029751.
These are yes or no findings as the source states them, for the method shown. In cells and extracts the contact can be indirect. Some results given as binding are weak or reduced against the parent protein; the word gives no strength.

Protein sequences, listed by entry. Tags and fused reporters are not part of them.
UniProt O09106: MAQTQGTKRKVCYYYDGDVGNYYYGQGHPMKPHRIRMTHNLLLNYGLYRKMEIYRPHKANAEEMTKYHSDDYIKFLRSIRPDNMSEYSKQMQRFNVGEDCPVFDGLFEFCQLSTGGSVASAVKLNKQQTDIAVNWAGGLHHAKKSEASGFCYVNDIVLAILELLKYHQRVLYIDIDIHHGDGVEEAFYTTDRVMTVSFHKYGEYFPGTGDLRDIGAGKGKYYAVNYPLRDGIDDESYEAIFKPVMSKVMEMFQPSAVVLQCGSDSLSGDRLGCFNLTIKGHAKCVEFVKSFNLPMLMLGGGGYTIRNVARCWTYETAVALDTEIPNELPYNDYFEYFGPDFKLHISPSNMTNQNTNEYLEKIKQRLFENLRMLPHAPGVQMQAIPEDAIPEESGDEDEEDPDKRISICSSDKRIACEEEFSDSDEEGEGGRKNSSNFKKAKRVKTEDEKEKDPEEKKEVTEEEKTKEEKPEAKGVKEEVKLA

Molecular target: T1, DNTTIP1 (mouse (endogenous in mESCs)) (UniProt Q99LB0)
T1 sequence: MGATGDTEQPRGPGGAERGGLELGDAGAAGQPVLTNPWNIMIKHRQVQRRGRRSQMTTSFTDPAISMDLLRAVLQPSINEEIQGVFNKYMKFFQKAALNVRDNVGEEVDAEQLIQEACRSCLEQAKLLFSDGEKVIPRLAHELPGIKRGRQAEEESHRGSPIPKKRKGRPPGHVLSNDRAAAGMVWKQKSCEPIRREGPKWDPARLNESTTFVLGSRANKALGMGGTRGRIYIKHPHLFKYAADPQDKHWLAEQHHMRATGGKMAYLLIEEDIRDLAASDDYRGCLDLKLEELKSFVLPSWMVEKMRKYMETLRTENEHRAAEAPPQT
Test: co-IP

Substance: HDAC1 (from UniProt O09106 1-482) (enzyme)
- binding: binds
